US4743594A, “Antibiotic, antitumor compounds and their use” (priority 1984, dated 1988)
The name of at least one read-out is uncertain.

test system: Actinomadura melliaura ATCC 39691; experiment: Growth of the producing strain in the presence of antibiotics; assay type: cell-based

Row | SMILES | Growth in the presence of 50 mcg/mL of antibiotic
1 | NC[C@@H]1O[C@H](O[C@H]2[C@@H](O)[C@H](O[C@@H]3[C@@H](O)[C@H](N)C[C@H](N)[C@H]3O[C@H]3O[C@H](CO)[C@@H](O)[C@H](O)[C@H]3N)O[C@@H]2CO)[C@H](N)[C@@H](O)[C@@H]1O [Paromomycin] | +
2 | CN[C@@H]1[C@H](O)[C@H](NC)[C@H]2O[C@@]3(O)C(=O)C[C@@H](C)O[C@H]3O[C@@H]2[C@H]1O [Spectinomycin] | +
3 | CCC[C@@H]1C[C@@H](C(=O)N[C@@H]([C@H]2O[C@H](SC)[C@H](O)[C@@H](O)[C@H]2O)[C@@H](C)O)N(C)C1 [Lincomycin] | +
4 | CC(=O)OCC1=C(C(=O)O)N2C(=O)[C@@H](NC(=O)Cc3cccs3)[C@H]2SC1 [Cephalothin] | +
5 | [H]/N=C(/N)N[C@H]1[C@H](O)[C@@H](O)[C@H](O[C@@H]2O[C@@H](C)[C@](O)(C=O)[C@H]2O[C@@H]2O[C@@H](CO)[C@H](O)[C@@H](O)[C@@H]2NC)[C@@H](N/C(N)=N\[H])[C@@H]1O [Streptomycin] | +
6 | COC[C@H]1O[C@@H](O[C@@H]2OC[C@@H]3O[C@@]4(OC[C@@H](OC(=O)c5c(C)cc(O)cc5O)[C@@H]5OCO[C@H]54)O[C@H]3[C@H]2O)[C@@H](OC)[C@@H](O)[C@@H]1O[C@@H]1O[C@H](C)[C@H](OC)[C@H](O[C@@H]2O[C@H](C)[C@H]3O[C@]4(C[C@@H](O)[C@H](O[C@H]5C[C@@H](O[C@H]6C[C@](C)([N+](=O)[O-])[C@@H](OC)[C@H](C)O6)[C@H](OC(=O)c6c(C)c(Cl)c(O)c(Cl)c6OC)[C@@H](C)O5)[C@@H](C)O4)O[C@]3(C)[C@@H]2O)[C@H]1O [Everninomicin] | -
7 | CC[C@H]1OC(=O)C[C@@H](O)[C@H](C)[C@@H](O[C@@H]2O[C@H](C)C[C@H](N(C)C)[C@H]2O)[C@@H](CC=O)C[C@@H](C)C(=O)/C=C/[C@]2(C)O[C@H]2[C@@H]1C [Rosaramicin] | +
8 | CC1(C)S[C@@H]2[C@H](NC(=O)Cc3ccccc3)C(=O)N2[C@H]1C(=O)O [Penicillin G] | +
9 | CO[C@H]1/C=C/O[C@@]2(C)Oc3c(C)c(O)c4c(O)c(cc(O)c4c3C2=O)NC(=O)/C(C)=C\C=C\[C@H](C)[C@H](O)[C@@H](C)[C@@H](O)[C@@H](C)[C@H](OC(C)=O)[C@@H]1C [Rifamycin] | -
10 | CN(C)[C@@H]1C(O)=C(C(N)=O)C(=O)[C@@]2(O)C(O)=C3C(=O)c4c(O)cccc4[C@@](C)(O)[C@H]3C[C@@H]12 [Tetracycline] | +
